Measured values as given in patent US8278473B2, “Alpha, beta-unsaturated imidate compound and pesticidal composition containing the same” (Sumitomo Chemical Company, Limited, priority 2007, dated 2012).
Some of these results come from one statement about several compounds together. For some assays here: The name of at least one read-out is uncertain. Some ranges recur; such a range may be that of the whole group of compounds.

What was measured:
Assay type in all cases: in vivo
Nilaparvata lugens = test: Test Example 4: Nilaparvata lugens, spray on rice plant; conditions: 500 ppm test solution, 20 mL/pot sprayed on rice; first-instar larvae; after 6 days
Plutella xylostella = test: Test Example 9: Plutella xylostella, spray on cabbage; conditions: 500 ppm test solution, 20 mL sprayed on cabbage; second-instar larvae; 25° C.; after 5 days
Adoxophyes orana = test: Test Example 2: Adoxophyes orana, artificial diet/filter paper test; conditions: 500 ppm test solution, 1 mL; first-instar larvae; after 7 days
Aphis gossypii = test: Test Example 3: Aphis gossypii, spray on cucumber leaves; conditions: 500 ppm test solution, 20 mL sprayed on cucumber; imagoes and larvae; after 6 days
Blattalla germanica = test: Test Example 6: Blattalla germanica, filter paper with sucrose bait; conditions: 500 ppm test solution, 0.7 ml on filter paper; male imagoes; after 6 days
Spodoptera litura = test: Test Example 1: Spodoptera litura, artificial diet/filter paper test; conditions: 500 ppm test solution, 2 mL; fourth-instar larvae; after 6 days
Musca domestica = test: Test Example 5: Musca domestica, filter paper with sucrose bait; conditions: 500 ppm test solution, 0.7 ml on filter paper; female imagoes; after 24 hours
Culex pipiens pallens = test: Test Example 7: Culex pipiens pallens larvae in treated water; conditions: active ingredient concentration 3.5 ppm in water; last-instar larvae; after 1 day

Row | Compound | index in terms of survival rate (Nilaparvata lugens) | index in terms of death rate (Plutella xylostella) | index in terms of death rate (Adoxophyes orana) | index in terms of survival rate (Aphis gossypii) | index in terms of death rate (Blattalla germanica) | index in terms of death rate (Spodoptera litura) | index in terms of death rate (Musca domestica) | index in terms of death rate (Culex pipiens pallens)
1 | CCOc1cccc(OC(=Nc2ccccc2)C(C)=COc2cccc(C)c2)c1 [Compound 179, 3-ethoxyphenyl 2-methyl-3-(3-methylphenyloxy)-N-phenyl-2-propenimidate] | 3 (3: 1 to 10%) | 3 (3: 80 to 99%) | 3 (3: 80 to 99%) | 3 (3: 1 to 10%) | 4 (4: 100%) | 3 (3: 80 to 99%) | 3 (3: 70 to 99%) | 4 (4: 91 to 100%)
2 | CCc1cccc(OC(=Nc2ccc(OC)cc2)C(C)=COc2cccc(C)c2)c1 [Compound 190, 3-ethylphenyl N-(4-methoxyphenyl)-2-methyl-3-(3-methylphenyloxy)-2-propenimidate] | 3 (3: 1 to 10%) | 3 (3: 80 to 99%) | 3 (3: 80 to 99%) | 3 (3: 1 to 10%) | 4 (4: 100%) | 3 (3: 80 to 99%) | 3 (3: 70 to 99%) | 4 (4: 91 to 100%)
3 | CCc1cccc(OC(=Nc2ccccc2)C(C)=COc2ccc(C)cc2)c1 [Compound 196, 3-ethylphenyl 2-methyl-3-(4-methylphenyloxy)-N-phenyl-2-propenimidate] | 3 (3: 1 to 10%) | 3 (3: 80 to 99%) | 3 (3: 80 to 99%) | 3 (3: 1 to 10%) | 4 (4: 100%) | 3 (3: 80 to 99%) | 3 (3: 70 to 99%) | 4 (4: 91 to 100%)
4 | CC(=COc1ccc(C)cc1)C(=Nc1ccccc1)Oc1cccc(F)c1 [Compound 198, 3-fluorophenyl 2-methyl-3-(4-methylphenyloxy)-N-phenyl-2-propenimidate] | 3 (3: 1 to 10%) | 3 (3: 80 to 99%) | 3 (3: 80 to 99%) | 3 (3: 1 to 10%) | 4 (4: 100%) | 3 (3: 80 to 99%) | 3 (3: 70 to 99%) | 4 (4: 91 to 100%)
5 | COc1ccccc1OC(=Nc1ccccc1)C(C)=COc1ccc(C)cc1 [Compound 203, 2-methoxyphenyl 2-methyl-3-(4-methylphenyloxy)-N-phenyl-2-propenimidate] | 3 (3: 1 to 10%) | 3 (3: 80 to 99%) | 3 (3: 80 to 99%) | 3 (3: 1 to 10%) | 4 (4: 100%) | 3 (3: 80 to 99%) |  | 4 (4: 91 to 100%)
6 | COc1cccc(OC(=Nc2ccccc2)C(C)=COc2ccc(C)cc2)c1 [Compound 204, 3-methoxyphenyl 2-methyl-3-(4-methylphenyloxy)-N-phenyl-2-propenimidate] | 3 (3: 1 to 10%) | 3 (3: 80 to 99%) | 3 (3: 80 to 99%) | 3 (3: 1 to 10%) | 4 (4: 100%) | 3 (3: 80 to 99%) | 3 (3: 70 to 99%) | 4 (4: 91 to 100%)
7 | CC(=COc1ccc(C)cc1)C(=Nc1ccc(C)cc1)Oc1ccccc1 [Compound 208, phenyl 2-methyl-N-(4-methylphenyl)-3-(4-methylphenyloxy)-2-propenimidate] | 3 (3: 1 to 10%) | 3 (3: 80 to 99%) | 3 (3: 80 to 99%) | 3 (3: 1 to 10%) | 4 (4: 100%) | 3 (3: 80 to 99%) | 3 (3: 70 to 99%) | 4 (4: 91 to 100%)
8 | CCc1cccc(OC(=Nc2ccc(C)cc2)C(C)=COc2ccc(C)cc2)c1 [Compound 212, 3-ethylphenyl 2-methyl-N-(4-methylphenyl)-3-(4-methylphenyloxy)-2-propenimidate] | 3 (3: 1 to 10%) | 3 (3: 80 to 99%) | 3 (3: 80 to 99%) | 3 (3: 1 to 10%) | 4 (4: 100%) | 3 (3: 80 to 99%) | 3 (3: 70 to 99%) | 4 (4: 91 to 100%)
9 | CC(=COc1ccc(C)cc1)C(=Nc1ccc(C)cc1)Oc1cccc(F)c1 [Compound 214, 3-fluorophenyl 2-methyl-N-(4-methylphenyl)-3-(4-methylphenyloxy)-2-propenimidate] | 3 (3: 1 to 10%) | 3 (3: 80 to 99%) | 3 (3: 80 to 99%) | 3 (3: 1 to 10%) | 4 (4: 100%) | 3 (3: 80 to 99%) | 3 (3: 70 to 99%) | 4 (4: 91 to 100%)
10 | CC(=COc1ccc(C)cc1)C(=Nc1ccc(C)cc1)Oc1cccc(Cl)c1 [Compound 217, 3-chlorophenyl 2-methyl-N-(4-methylphenyl)-3-(4-methylphenyloxy)-2-propenimidate] | 3 (3: 1 to 10%) | 3 (3: 80 to 99%) | 3 (3: 80 to 99%) | 3 (3: 1 to 10%) | 4 (4: 100%) | 3 (3: 80 to 99%) | 3 (3: 70 to 99%) | 4 (4: 91 to 100%)
11 | CCc1cccc(OC(=Nc2ccc(OC)cc2)C(C)=COc2ccc(C)cc2)c1 [Compound 226, 3-ethylphenyl N-(4-methoxyphenyl)-2-methyl-3-(4-methylphenyloxy)-2-propenimidate] | 3 (3: 1 to 10%) | 3 (3: 80 to 99%) | 3 (3: 80 to 99%) | 3 (3: 1 to 10%) | 4 (4: 100%) | 3 (3: 80 to 99%) | 3 (3: 70 to 99%) | 4 (4: 91 to 100%)
12 | COc1ccc(N=C(Oc2cccc(OC)c2)C(C)=COc2ccccc2OC)cc1 [Compound 248, 3-methoxyphenyl N-(4-methoxyphenyl)-3-(2-methoxyphenyloxy)-2-methyl-2-propenimidate] | 3 (3: 1 to 10%) | 3 (3: 80 to 99%) | 3 (3: 80 to 99%) |  | 4 (4: 100%) | 3 (3: 80 to 99%) | 3 (3: 70 to 99%) | 4 (4: 91 to 100%)
13 | CCc1cccc(OC(=Nc2ccc(C)c(C)c2)C(C)=COc2ccc(OC)cc2)c1 [Compound 284, 3-ethylphenyl N-(3,4-dimethylphenyl)-3-(4-methoxyphenyloxy)-2-methyl-2-propenimidate] | 3 (3: 1 to 10%) | 3 (3: 80 to 99%) | 3 (3: 80 to 99%) | 3 (3: 1 to 10%) |  | 3 (3: 80 to 99%) | 3 (3: 70 to 99%) | 4 (4: 91 to 100%)
14 | CC(=COc1ccc(Oc2ccccc2)cc1)C(=Nc1ccccc1)Oc1ccccc1 [Compound 291, phenyl 2-methyl-3-(4-phenoxyphenyloxy)-N-phenyl-2-propenimidate] | 3 (3: 1 to 10%) | 3 (3: 80 to 99%) | 3 (3: 80 to 99%) |  | 4 (4: 100%) | 3 (3: 80 to 99%) | 3 (3: 70 to 99%) | 4 (4: 91 to 100%)
15 | CCC(=COc1ccccc1)C(=Nc1ccc(C)cc1)Oc1ccccc1 [Compound 302, phenyl 2-ethyl-N-(4-methylphenyl)-3-phenoxy-2-propenimidate] | 3 (3: 1 to 10%) |  | 3 (3: 80 to 99%) | 3 (3: 1 to 10%) | 4 (4: 100%) | 3 (3: 80 to 99%) | 3 (3: 70 to 99%) | 4 (4: 91 to 100%)
16 | CCC(=COc1cccc(C)c1)C(=Nc1ccccc1)Oc1ccc(C)cc1 [Compound 306, 4-methylphenyl 2-ethyl-3-(3-methylphenyloxy)-N-phenyl-2-propenimidate] | 3 (3: 1 to 10%) | 3 (3: 80 to 99%) | 3 (3: 80 to 99%) | 3 (3: 1 to 10%) |  | 3 (3: 80 to 99%) | 3 (3: 70 to 99%) | 4 (4: 91 to 100%)
